Data as given in PubChem BioAssay AID1259308 (NCATS, 2017)
Here is one part, drawn at random, of about 59,000 reagents. Of all reagents, about 1,510 (2.6%) were called active. 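Calls use total luciferase alone and ignore viability, so some active siRNAs may act by altering cell number.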 A number with no mark means an inactive call. Reagents against one gene are numbered here. Further read-outs or replicates are left out here.

- Screen: 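Candidate targets for better recombinant protein yield in mammalian cells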 (primary screen)
- Cells: human HEK293 embryonic kidney cells stably expressing firefly luciferase (HEK-CMV-Luc2-Hygro)
- Knock-down reagent: single siRNA against human genes, 0.8 pmol siRNA per well
- Timing: 72 h
- Measured: 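Luciferase light (ONE-Glo) measured on one replicate plate set and viability (CellTiter-Glo) on the other, scaled to a negative control siRNA, with robust z-scores and luciferase per cell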
- Scale: total luciferase, z-score: higher = more reporter protein produced
- Rule for the call: 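An siRNA counts as active if its total luciferase robust z-score exceeds 3; genes with two or more such siRNAs out of three were retested with fresh siRNAs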
- Meaning of the calls: active = raised luciferase; inactive = no rise

total luciferase, z-score, by target gene and reagent
MYO7A: #1 2.27; #2 -0.627; #3 1.2
NBEAL1: #1 0.082; #2 -0.016; #3 -0.703; #4 -1.59; #5 0.456; #6 0.147
PDE3A: #1 3.05 (active); #2 0.22; #3 -0.447
SLC7A8: #1 -0.987; #2 0.544; #3 0.966
CYP4B1: #1 -1.58; #2 -0.212; #3 -1.15
SCTR: #1 -0.651; #2 -0.267; #3 0.621
NRIP3: #1 -0.173; #2 0.103; #3 -2.18

Single entries from the entries so far.
Result for CYP4B1 #3 in “total luciferase, z-score”: -1.15
Result of NBEAL1 #4 in “total luciferase, z-score”: -1.59
For “total luciferase, z-score”, PDE3A #3 is entered as -0.447
For “total luciferase, z-score”, MYO7A #3 is entered as 1.2
For “total luciferase, z-score”, NRIP3 #1 is entered as -0.173

The list goes on.
total luciferase, z-score, by target gene and reagent
OTUD7A: #1 -0.17; #2 0.0733; #3 0.57
CD160: #1 1.14; #2 -0.0771; #3 -1.74
LSM6: #1 -0.0051; #2 0.492; #3 0.417; #4 0.182; #5 0.549; #6 0.969
MED30: #1 -1.42; #2 -0.728; #3 -1.42
PDHA2: #1 -0.482; #2 -0.499; #3 -1.1
LHX5: #1 -0.164; #2 -1.07; #3 -1.45
GPR45: #1 1.47; #2 1.04; #3 1.7
RPS19BP1: #1 -1.45; #2 0.887; #3 -1.81
GMEB2: #1 -2.72; #2 -0.253; #3 -1.11
DR1: #1 -1.07; #2 -1.18; #3 -0.289
